Article PMC9161502
No constants are given. Whether binding was seen depends on the method and setting. Binding seen in cells or lysates may run through a third protein. Here binding means that the protein was enriched with, or labelled near, the bait; the list need not be complete.

By UniProt entry, the sequences of proteins in these tests, tags left out.
UniProt Q61466: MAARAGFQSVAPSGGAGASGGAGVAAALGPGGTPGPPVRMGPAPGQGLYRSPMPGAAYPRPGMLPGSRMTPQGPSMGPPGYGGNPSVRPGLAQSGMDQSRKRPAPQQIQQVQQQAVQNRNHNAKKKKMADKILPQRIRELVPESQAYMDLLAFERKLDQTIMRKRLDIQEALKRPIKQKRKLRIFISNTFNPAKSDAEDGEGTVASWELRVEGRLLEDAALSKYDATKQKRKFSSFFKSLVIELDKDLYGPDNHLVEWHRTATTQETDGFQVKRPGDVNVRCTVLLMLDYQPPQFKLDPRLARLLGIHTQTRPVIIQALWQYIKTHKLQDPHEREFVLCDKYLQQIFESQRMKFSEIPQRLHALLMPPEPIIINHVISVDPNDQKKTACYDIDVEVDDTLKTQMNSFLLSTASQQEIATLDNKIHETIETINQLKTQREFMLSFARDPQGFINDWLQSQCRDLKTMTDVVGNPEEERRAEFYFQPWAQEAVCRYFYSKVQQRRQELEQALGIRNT
UniProt P97496: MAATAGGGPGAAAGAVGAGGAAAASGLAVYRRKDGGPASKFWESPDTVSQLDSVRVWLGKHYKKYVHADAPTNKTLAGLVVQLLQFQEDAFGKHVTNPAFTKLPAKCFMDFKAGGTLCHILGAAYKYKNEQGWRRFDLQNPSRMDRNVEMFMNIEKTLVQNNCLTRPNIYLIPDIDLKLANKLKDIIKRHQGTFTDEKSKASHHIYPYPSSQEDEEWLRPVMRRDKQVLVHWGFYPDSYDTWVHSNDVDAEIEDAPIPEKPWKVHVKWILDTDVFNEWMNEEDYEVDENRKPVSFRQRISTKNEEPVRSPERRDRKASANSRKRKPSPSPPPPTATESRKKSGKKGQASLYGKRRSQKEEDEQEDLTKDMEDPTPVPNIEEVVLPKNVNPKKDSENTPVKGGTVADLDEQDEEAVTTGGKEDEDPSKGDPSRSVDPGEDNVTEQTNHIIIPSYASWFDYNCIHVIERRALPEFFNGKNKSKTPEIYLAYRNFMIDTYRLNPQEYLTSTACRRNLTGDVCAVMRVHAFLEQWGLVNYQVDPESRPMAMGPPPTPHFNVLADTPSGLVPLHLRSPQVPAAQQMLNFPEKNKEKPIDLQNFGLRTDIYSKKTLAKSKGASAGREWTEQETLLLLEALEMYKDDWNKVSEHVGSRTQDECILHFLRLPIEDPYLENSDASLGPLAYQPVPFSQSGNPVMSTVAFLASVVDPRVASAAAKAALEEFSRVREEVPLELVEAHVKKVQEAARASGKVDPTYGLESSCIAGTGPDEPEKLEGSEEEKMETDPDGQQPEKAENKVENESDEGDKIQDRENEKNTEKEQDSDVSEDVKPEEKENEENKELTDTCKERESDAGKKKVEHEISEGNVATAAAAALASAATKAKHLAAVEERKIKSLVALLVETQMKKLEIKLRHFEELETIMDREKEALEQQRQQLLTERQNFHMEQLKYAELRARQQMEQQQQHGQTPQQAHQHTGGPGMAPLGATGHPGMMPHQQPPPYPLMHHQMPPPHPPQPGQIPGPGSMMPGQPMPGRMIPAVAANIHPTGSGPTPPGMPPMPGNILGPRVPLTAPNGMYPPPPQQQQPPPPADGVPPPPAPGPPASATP

T1: POGZ (endogenous, mouse ESCs) (mouse (endogenous in mESCs R1)) (UniProt Q8BZH4)
T1 sequence: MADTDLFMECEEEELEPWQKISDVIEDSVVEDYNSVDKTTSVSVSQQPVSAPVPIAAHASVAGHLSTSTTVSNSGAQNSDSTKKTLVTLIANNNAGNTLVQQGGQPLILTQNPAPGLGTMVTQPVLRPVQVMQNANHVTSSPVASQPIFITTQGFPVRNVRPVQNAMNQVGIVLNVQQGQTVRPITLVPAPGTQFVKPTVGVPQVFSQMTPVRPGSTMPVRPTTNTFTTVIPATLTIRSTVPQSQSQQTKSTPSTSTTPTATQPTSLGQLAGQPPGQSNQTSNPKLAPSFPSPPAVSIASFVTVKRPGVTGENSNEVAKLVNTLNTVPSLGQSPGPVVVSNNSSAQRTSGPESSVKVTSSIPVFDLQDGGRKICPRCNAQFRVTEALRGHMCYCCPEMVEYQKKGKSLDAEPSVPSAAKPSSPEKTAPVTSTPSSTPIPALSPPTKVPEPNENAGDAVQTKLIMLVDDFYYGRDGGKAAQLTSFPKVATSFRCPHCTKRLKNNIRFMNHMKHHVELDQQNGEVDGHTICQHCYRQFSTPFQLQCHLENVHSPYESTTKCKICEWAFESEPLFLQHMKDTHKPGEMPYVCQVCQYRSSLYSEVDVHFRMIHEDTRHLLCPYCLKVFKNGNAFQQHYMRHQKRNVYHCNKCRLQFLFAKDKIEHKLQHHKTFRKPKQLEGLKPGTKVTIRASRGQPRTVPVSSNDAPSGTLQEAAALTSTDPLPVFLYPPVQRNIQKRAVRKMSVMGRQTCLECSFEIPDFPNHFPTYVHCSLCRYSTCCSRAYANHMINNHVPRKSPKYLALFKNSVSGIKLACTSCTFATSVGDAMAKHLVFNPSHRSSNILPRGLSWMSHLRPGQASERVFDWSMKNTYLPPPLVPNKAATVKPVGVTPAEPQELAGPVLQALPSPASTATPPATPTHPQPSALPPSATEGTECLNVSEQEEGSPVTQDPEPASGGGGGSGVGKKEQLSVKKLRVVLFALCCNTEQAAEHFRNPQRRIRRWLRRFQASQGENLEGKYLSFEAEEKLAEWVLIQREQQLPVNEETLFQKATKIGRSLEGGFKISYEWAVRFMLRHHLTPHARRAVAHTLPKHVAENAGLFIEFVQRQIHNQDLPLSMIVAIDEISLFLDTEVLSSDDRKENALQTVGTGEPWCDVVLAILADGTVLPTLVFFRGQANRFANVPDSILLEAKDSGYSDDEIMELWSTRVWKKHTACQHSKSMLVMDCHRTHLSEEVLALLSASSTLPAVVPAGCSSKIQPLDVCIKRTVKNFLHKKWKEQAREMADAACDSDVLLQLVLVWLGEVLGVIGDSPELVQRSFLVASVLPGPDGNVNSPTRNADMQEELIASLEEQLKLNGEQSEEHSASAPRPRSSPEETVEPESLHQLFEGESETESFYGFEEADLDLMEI

B1: Nono (protein, UniProt Q99K48 1-473)
chain: MQSNKAFNLEKQNHTPRKHHQHHHQQHHQQQQQQQQQQPPPPIPANGQQASSQNEGLTIDLKNFRKPGEKTFTQRSRLFVGNLPPDITEEEMRKLFEKYGKAGEVFIHKDKGFGFIRLETRTLAEIAKVELDNMPLRGKQLRVRFACHSASLTVRNLPQYVSNELLEEAFSVFGQVERAVVIVDDRGRPSGKGIVEFSGKPAARKALDRCSEGSFLLTTFPRPVTVEPMDQLDDEEGLPEKLVIKNQQFHKEREQPPRFAQPGSFEYEYAMRWKALIEMEKQQQDQVDRNIKEAREKLEMEMEAARHEHQVMLMRQDLMRRQEELRRMEELHNQEVQKRKQLELRQEEERRRREEEMRRQQEEMMRRQQEGFKGTFPDAREQEIRMGQMAMGGAMGINNRGAMPPAPVPPGTPAPPGPATMMPDGTLGLTPPTTERFGQAATMEGIGAIGGTPPAFNRPAPGAEFAPNKRRRY
B2: Sfpq (protein, UniProt Q8VIJ6 1-699)
chain: MSRDRFRSRGGGGGGFHRRGGGGGRGGLHDFRSPPPGMGLNQNRGPMGPGPGGPKPPLPPPPPHQQQQQPPPQQPPPQQPPPHQQPPPHQPPHQQPPPPPQESKPVVPQGPGSAPGVSSAPPPAVSAPPANPPTTGAPPGPGPTPTPPPAVPSTAPGPPPPSTPSSGVSTTPPQTGGPPPPPAGGAGPGPKPGPGPGGPKGGKMPGGPKPGGGPGMGAPGGHPKPPHRGGGEPRGGRQHHAPYHQQHHQGPPPGGPGPRTEEKISDSEGFKANLSLLRRPGEKTYTQRCRLFVGNLPADITEDEFKRLFAKYGEPGEVFINKGKGFGFIKLESRALAEIAKAELDDTPMRGRQLRVRFATHAAALSVRNLSPYVSNELLEEAFSQFGPIERAVVIVDDRGRSTGKGIVEFASKPAARKAFERCSEGVFLLTTTPRPVIVEPLEQLDDEDGLPEKLAQKNPMYQKERETPPRFAQHGTFEYEYSQRWKSLDEMEKQQREQVEKNMKDAKDKLESEMEDAYHEHQANLLRQDLMRRQEELRRMEELHSQEMQKRKEMQLRQEEERRRREEEMMIRQREMEEQMRRQREESYSRMGYMDPRERDMRMGGGGTMNMGDPYGSGGQKFPPLGGGGGIGYEANPGVPPATMSGSMMGSDMRTERFGQGGAGPVGGQGPRGMGPGTPAGYGRGREEYEGPNKKPRF
B3: Mybbp1a (protein, UniProt Q7TPV4 1-1344)
chain: MAEMKSPTKAEPATPAEAAQSDRHSLLEHSREFLDFFWDIAKPDQETRLRATEKLLEYLRTRPNDSEMKYALKRLITGLGVGREAARPCYSLALAQLLQSFEDIPLCDILDQIQEKYSLQAMNKAMMRPSLFANLFGVLALFQSGRLVKDKEALMKSVQLLKILSQHPNHLQGQPIKALVDILSEVPESMFQEILPKVLKGNMKVILRSPKYLELFLLAKQRVPTKLESLMGSVDLFSEDNIPSLVNILKVAANSVKKEHKLPNVALDLLRLALKESRFELFWKKVLEEGLLKNPSWTSSYMCFRLLGASLPLLSEEQLQLVMRGDLIRHFGENMVISKPQNLFKIIPEISTYVGTFLEGCQDDPKRQLTMMVAFTTITNQGLPVMPTFWRVTRFLNAEALQSYVAWLRDMFLQPDLNSLVDFSTANQKRAQDASLNVPERAVFRLRKWIIHRLVSLVDHLHLEKDEAVVEQIARFCLFHAFFKTKKATPQIPETKQHFSFPLDDRNRGVFVSAFFSLLQTLSVKFRQTPDLAENGKPWTYRLVQLADMLLNHNRNVTSVTSLTTQQRQAWDQMMSTLKELEARSSETRAIAFQHLLLLVGLHIFKSPAESCDVLGDIQTCIKKSMEQNPRRSRSRAKASQEPVWVEVMVEILLSLLAQPSNLMRQVVRSVFGHICPHLTPRCLQLILAVLSPVTNEDEDDNVVVTDDADEKQLQHGEDEDSDNEDNKNSESDMDSEDGEESEEEDRDKDVDPGFRQQLMEVLKAGNALGGVDNEEEEELGDEAMMALDQNLASLFKEQKMRIQARNEEKNKLQKEKKLRRDFQIRALDLIEVLVTKQPEHPLILELLEPLLNVIQHSMRSKGSTKQEQDLLHKTARIFMHHLCRARRYCHEVGPCAEALHAQVERLVQQAGSQADASVALYYFNASLYLLRVLKGNTNKRHQDGHKLHGADTEDSEDQAANCLDLDFVTRVYSASLESLLTKRNSSLTVPMFLSLFSRYPVICKNLLPVLAQHVAGPSRPRHQAQACLMLQKTLSARELRVCFEDPEWEQLITQLLGKATQTLQTLGEAQSKGEHQKELSILELLNTLLRTVNHEKLSVDLTAPLGVLQSKQQKLQQSLQQGNHSSGSNRLYDLYWQAMRMLGVQRPKSEKKNAKDIPSDTQSPVSTKRKKKGFLPETKKRKKLKSEGTTPEKNAASQQDAVTEGAMPAATGKDQPPSTGKKKRKRVKASTPSQVNGITGAKSPAPSNPTLSPSTPAKTPKLQKKKEKLSQVNGATPVSPIEPESKKHHQEALSTKEVIRKSPHPQSALPKKRARLSLVSRSPSLLQSGVKKRRVASRRVQTP

These molecules were tested against T1, POGZ (endogenous, mouse ESCs) (mouse (endogenous in mESCs R1)) (assay: affinity purification with mass spectrometry; IP from ESC lysate with IgG, POGZ antibody or FLAG antibody on Dynabeads Protein G; whole SDS-PAGE lanes cut, trypsin digest, AB SCIEX Triple TOF 5600 plus; repeated three times).

binding, binds:
SMARCD1/BAF60a (from UniProt Q61466 1-515)
SMARCC1/BAF155 (endogenous, mouse ESCs) (from UniProt P97496 1-1104)
B1
B2
B3
